Values from PubChem BioAssay AID1259300 (Sanger Institute, 2017).

Screen: 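Kinase and colorectal-mutated gene knock-downs lowering HCT15 viability or boosting drug effects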 (primary screen)
Cells: HCT15 colorectal cancer cells
Knock-down reagent: siRNA pool against human genes
Challenge: anchor drug or DMSO vehicle added 24 h after seeding: BYL719 1 µM, cetuximab 5 µg/ml, trametinib 10 nM; drug doses chosen to barely affect viability alone
Detection: 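Replicate-mean viability relative to non-targeting pool control with robust z-score for knock-down without drug; per-drug synergy scores for BYL719 (1 µM), cetuximab (5 µg/ml), trametinib (10 nM)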
Direction: viability z-score, siRNA alone: higher = more viable cells after knock-down; viability vs non-targeting, siRNA alone: higher = more viable cells; synergy score with BYL719 and synergy score with cetuximab and synergy score with trametinib: higher = stronger synergy of knock-down with drug
Rule for the call: 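Called active (essential) if viability z-score with knock-down alone falls below -3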
Calls: active = essential: knock-down alone lowers viability (z below -3); inactive = no strong viability loss with knock-down alone
The whole screen tested 794 reagents; this is a random part of them. Over the whole deposit, 18 (2.3%) were called active. 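Calls rest on knock-down alone, not drug synergy; depositor treated synergy scores above 0.15 as synergistic; drug doses alone had little viability effect.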 Viability is capped at 1. Not given: the amount of reagent, the time to read-out.

gene knocked down | viability z-score, siRNA alone | viability vs non-targeting, siRNA alone | synergy score with BYL719 | synergy score with cetuximab | synergy score with trametinib | activity call
DNMT3A | 0.493 | 0.99 | 0.153 | 0.134 | -0.0438 | inactive
MAPK14 | -1.87 | 0.819 | -0.0876 | -0.126 | -0.0744 | inactive
NME2 | 0.625 | 1 | 0.0575 | 0 | -0.0984 | inactive
MYLK3 | 0.0279 | 0.957 | 0.0805 | 0.00117 | -0.134 | inactive
MAPK13 | 0.625 | 1 | 0.0977 | 0.0806 | -0.0105 | inactive
NEK3 | 0.511 | 0.992 | 0.0588 | 0.0942 | 0.0798 | inactive
MAP3K7 | 0.625 | 1 | 0.135 | 0.038 | -0.0984 | inactive
TRPM6 | -0.0405 | 0.952 | 0.0462 | -0.042 | 0.0207 | inactive
CAMK1D | 0.127 | 0.964 | 0.0157 | 0.039 | -0.0295 | inactive
SYNCRIP | 0.422 | 0.985 | 0.342 | 0.142 | 0.2 | inactive
INSR | 0.625 | 1 | 0.0556 | 0 | 0.0558 | inactive
PRP4K | -1.63 | 0.836 | 0.0923 | -0.067 | 0.0758 | inactive
STK31 | 0.157 | 0.966 | 0.193 | -0.0101 | -0.0553 | inactive
PFKFB1 | -0.724 | 0.902 | -0.00918 | -0.0406 | -0.187 | inactive
GUK1 | -3.24 | 0.719 | -0.0953 | -0.185 | -0.236 | active
STK38 | -0.961 | 0.885 | 0.0273 | -0.0626 | -0.073 | inactive
GSK3B | 0.625 | 1 | 0.158 | 0 | -0.0984 | inactive
CDK5 | 0.625 | 1 | 0.00617 | 0.0336 | 0.0685 | inactive
PAK2 | 0.0175 | 0.956 | 0.124 | 0.00481 | -0.0608 | inactive
PIK3R1 | 0.39 | 0.983 | 0.13 | 0.0139 | -0.0302 | inactive
MUSK | 0.625 | 1 | 0.265 | 0.157 | 0.264 | inactive
CHD4 | -3.94 | 0.668 | -0.175 | -0.0822 | -0.162 | active
MAPK8 | 0.625 | 1 | 0.193 | 0.00266 | -0.079 | inactive
NEK4 | -0.54 | 0.915 | 0.149 | -0.0604 | -0.157 | inactive
GRK3 | 0.625 | 1 | 0.000345 | 0.0298 | -0.0984 | inactive
PIP5K1A | -1.72 | 0.83 | 0.0274 | -0.0624 | 0.0675 | inactive
PTPN11 | -0.076 | 0.949 | 0.19 | 0.0532 | 0.0199 | inactive
TLK1 | -0.128 | 0.945 | 0.0537 | 0.0789 | 0.303 | inactive
PBK | -1.19 | 0.868 | -0.00507 | -0.0464 | -0.218 | inactive
CDKN1A | 0.625 | 1 | 0.218 | 0.0523 | 0.0292 | inactive
PMVK | 0.625 | 1 | 0.067 | 0 | -0.0568 | inactive
MINK1 | -0.945 | 0.886 | 0.181 | 0.0393 | -0.073 | inactive
DYRK1A | 0.422 | 0.985 | 0.119 | 0.105 | 0.105 | inactive
TCF12 | 0.625 | 1 | 0.0791 | 0.00935 | 0.00516 | inactive

Just “synergy score with BYL719” (3 entries from above):
NEK3 = 0.0588
MAP3K7 = 0.135
TRPM6 = 0.0462
